Test results: PubChem BioAssay AID1856 (The Scripps Research Institute Molecular Screening Center, 2009)
Out of some 1,300 compounds screened, fewer than 10 were called active. No rule for the calls is given here. Only a part is listed here, and it is no random draw.

test system: metallo-beta-lactamase IMP-1 (Pseudomonas aeruginosa); assay: IMP-1 enzyme inhibition by VIM-2 hits – biochemical, epi-absorbance readout, triplicate, selectivity assay for selective VIM-2 inhibitor project, confirmation (AID 1856); details: purified IMP-1, nitrocefin hydrolysis, epi-absorbance fluorescence; at 5.6 µM; active compounds read high;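 also: 0% = enzyme with vehicle and 100% = vehicle without enzyme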

SMILES | inhibition
Cc1cc(OCc2cc(C(=O)O)oc2C)c2c3c(c(=O)oc2c1)CCCC3 | inactive: -1.08%
Cc1cc(=O)oc2c(C)c(OCC(=O)N3CCN(Cc4ccc5c(c4)OCO5)CC3)ccc12 | inactive: -3.26%
